Results published in the supplement of paper PMC4604168 (melanoma cell lines).
Some of the results follow. Repeats are few or missing, and single values can be far off.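 Imaging used 1,536-well plates; nuclei positive for cleaved PARP by antibody were divided by total DNA-stained nuclei to yield the apoptosis fraction. Doses for screening kept most cells viable, and cell lines differ markedly in resting and induced cleaved-PARP levels.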

tested on: CBRC013 (line from a melanoma biopsy); test: cleaved PARP positive nuclei fraction relative to DMSO control; melanoma cells; higher = more apoptosis; conditions: library dose: low library concentration; 72 h

| SMILES | cleaved PARP positive nuclei fraction [%] |
| --- | --- |
| O=C(Nc1cccc(Cl)c1)Nc1ncc(CCNc2ncnc3ccsc23)s1 + O=C(O)c1ccc(-c2c[nH]c3ncc(-c4ccccc4)cc23)cc1C1CCCC1 [GSK650394] (first compound 0.0008 µM, partner dose 0.16 µM) | 137 |
| O=C(Nc1cccc(Cl)c1)Nc1ncc(CCNc2ncnc3ccsc23)s1 + CN(NC(=O)CC(=O)NN(C)C(=S)c1ccccc1)C(=S)c1ccccc1 [STA4783] (first compound 0.0008 µM, partner dose 0.006 µM) | 103 |
| Cn1nnc2c(C(N)=O)ncn2c1=O [temozolomide] + Cc1cc([N+](=O)[O-])ccc1NS(=O)(=O)c1cc(Cl)ccc1Cl [FH535] (first compound 2 µM, partner dose 1 µM) | 37.3 |
| NC(=O)Nc1cc(-c2cccc(F)c2)sc1C(=O)N[C@H]1CCCNC1 + O=C(Nc1cccc(Cl)c1)Nc1ncc(CCNc2ncnc3ccsc23)s1 [SNS314] (first compound 0.02 µM, partner dose 0.0008 µM) | 107 |
| CC1(C)NC(=O)N(c2ccc([N+](=O)[O-])c(C(F)(F)F)c2)C1=O [nilutamide] + CO[C@@H]1[C@H](N(C)C(=O)c2ccccc2)C[C@H]2O[C@]1(C)n1c3ccccc3c3c4c(c5c6ccccc6n2c5c31)C(=O)NC4 [Midostaurin] (first compound 1 µM, partner dose 0.08 µM) | 107 |
| Cc1nc(Nc2ncc(C(=O)Nc3c(C)cccc3Cl)s2)cc(N2CCN(CCO)CC2)n1 [dasatanib] + Cn1cc(/C=C2\C(=O)Nc3cccnc32)c2ccccc21 [GW441756] (first compound 0.004 µM, partner dose 0.4 µM) | 187 |
| Cc1cc(N2CCOCC2)cc2[nH]c(-c3c(NC[C@@H](O)c4cccc(Cl)c4)cc[nH]c3=O)nc12 + Oc1nc(-c2ccc(C(F)(F)F)cc2)nc2c1CSCC2 [XAV939] (first compound 0.2 µM, partner dose 2 µM) | 92.7 |
| Clc1ccc(Nc2nnc(Cc3ccncc3)c3ccccc23)cc1 [vatalanib] + COc1cc(Nc2ncc(F)c(Nc3ccc4c(n3)NC(=O)C(C)(C)O4)n2)cc(OC)c1OC [Tamatinib] (first compound 2 µM, partner dose 0.4 µM) | 111 |
| Cc1cc(N2CCOCC2)cc2[nH]c(-c3c(NC[C@@H](O)c4cccc(Cl)c4)cc[nH]c3=O)nc12 + Oc1cc(-c2nc(-c3ccccc3)[nH]c2-c2ccncc2)ccc1Cl [L779450] (first compound 0.2 µM, partner dose 0.2 µM) | 166 |
| C=CCn1c(=O)c2cnc(Nc3ccc(N4CCN(C)CC4)cc3)nc2n1-c1cccc(C(C)(C)O)n1 + Cc1cc([N+](=O)[O-])ccc1NS(=O)(=O)c1cc(Cl)ccc1Cl [FH535] (first compound 0.02 µM, partner dose 1 µM) | 130 |
| Cc1ccc(NC(=O)c2cccc(N(C)C)c2)cc1NC(=O)c1ccc(O)cc1 + CC(C)(C)c1cnc(CSc2cnc(NC(=O)C3CCNCC3)s2)o1 [SNS-032] (first compound 2 µM, partner dose 0.01 µM) | 53.2 |
| Cc1nc(Nc2ncc(C(=O)Nc3c(C)cccc3Cl)s2)cc(N2CCN(CCO)CC2)n1 [dasatanib] + NC(=O)Nc1cc(-c2cccc(F)c2)sc1C(=O)N[C@H]1CCCNC1 [AZD7762] (first compound 0.004 µM, partner dose 0.02 µM) | 71.5 |
| CO[C@@H]1[C@H](N(C)C(=O)c2ccccc2)C[C@H]2O[C@]1(C)n1c3ccccc3c3c4c(c5c6ccccc6n2c5c31)C(=O)NC4 [Midostaurin] + c1cc(-c2cnn3cc(-c4ccc(OCCN5CCCCC5)cc4)cnc23)ccn1 [Dorsomorphin] (first compound 0.08 µM, partner dose 0.4 µM) | 327 |
| NC(=O)Nc1cc(-c2cccc(F)c2)sc1C(=O)N[C@H]1CCCNC1 + N#Cc1c(O)c2c(-c3ccc(-c4ccccc4O)cc3)csc2[nH]c1=O [A769662] (first compound 0.02 µM, partner dose 2 µM) | 1100 |
| C[C@]1(c2nc3c(C(N)=O)cccc3[nH]2)CCCN1 [Veliparib] + Cc1cc(N2CCOCC2)cc2[nH]c(-c3c(NC[C@@H](O)c4cccc(Cl)c4)cc[nH]c3=O)nc12 [BMS536924] (first compound 1.4 µM, partner dose 0.2 µM) | 124 |

Laid out differently: entries from further up
SMILES | cleaved PARP positive nuclei fraction [%]
Cc1cc(N2CCOCC2)cc2[nH]c(-c3c(NC[C@@H](O)c4cccc(Cl)c4)cc[nH]c3=O)nc12 + Oc1cc(-c2nc(-c3ccccc3)[nH]c2-c2ccncc2)ccc1Cl [L779450] (first compound 0.2 µM, partner dose 0.2 µM) | 166
C=CCn1c(=O)c2cnc(Nc3ccc(N4CCN(C)CC4)cc3)nc2n1-c1cccc(C(C)(C)O)n1 + Cc1cc([N+](=O)[O-])ccc1NS(=O)(=O)c1cc(Cl)ccc1Cl [FH535] (first compound 0.02 µM, partner dose 1 µM) | 130
Cc1ccc(NC(=O)c2cccc(N(C)C)c2)cc1NC(=O)c1ccc(O)cc1 + CC(C)(C)c1cnc(CSc2cnc(NC(=O)C3CCNCC3)s2)o1 [SNS-032] (first compound 2 µM, partner dose 0.01 µM) | 53.2
Cc1nc(Nc2ncc(C(=O)Nc3c(C)cccc3Cl)s2)cc(N2CCN(CCO)CC2)n1 [dasatanib] + NC(=O)Nc1cc(-c2cccc(F)c2)sc1C(=O)N[C@H]1CCCNC1 [AZD7762] (first compound 0.004 µM, partner dose 0.02 µM) | 71.5
